Experimental data published in publication PMC11599752.

Chains of the proteins cited; added tags and fusions are not shown.
UniProt P12956: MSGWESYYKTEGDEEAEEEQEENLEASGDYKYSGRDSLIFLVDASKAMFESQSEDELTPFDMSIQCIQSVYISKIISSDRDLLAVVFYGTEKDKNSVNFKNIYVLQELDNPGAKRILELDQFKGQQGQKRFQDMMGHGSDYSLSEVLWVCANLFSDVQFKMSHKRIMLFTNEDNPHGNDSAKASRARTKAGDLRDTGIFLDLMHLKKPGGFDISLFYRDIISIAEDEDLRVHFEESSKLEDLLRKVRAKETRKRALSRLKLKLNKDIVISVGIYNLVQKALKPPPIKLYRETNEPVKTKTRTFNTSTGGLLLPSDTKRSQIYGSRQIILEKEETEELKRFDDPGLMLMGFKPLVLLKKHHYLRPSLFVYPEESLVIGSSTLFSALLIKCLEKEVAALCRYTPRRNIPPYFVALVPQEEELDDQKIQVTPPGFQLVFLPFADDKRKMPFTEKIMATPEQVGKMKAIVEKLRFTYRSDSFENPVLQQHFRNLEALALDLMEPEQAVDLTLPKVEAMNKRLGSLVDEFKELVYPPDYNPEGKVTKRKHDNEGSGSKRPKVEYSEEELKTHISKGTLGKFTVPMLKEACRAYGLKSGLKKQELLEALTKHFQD

Tests used:
[1] = molecular target: T1, SFPQ (human (endogenous in TREx-BCBL1-RTA)) (UniProt P23246); assay: affinity purification with mass spectrometry
T1 sequence: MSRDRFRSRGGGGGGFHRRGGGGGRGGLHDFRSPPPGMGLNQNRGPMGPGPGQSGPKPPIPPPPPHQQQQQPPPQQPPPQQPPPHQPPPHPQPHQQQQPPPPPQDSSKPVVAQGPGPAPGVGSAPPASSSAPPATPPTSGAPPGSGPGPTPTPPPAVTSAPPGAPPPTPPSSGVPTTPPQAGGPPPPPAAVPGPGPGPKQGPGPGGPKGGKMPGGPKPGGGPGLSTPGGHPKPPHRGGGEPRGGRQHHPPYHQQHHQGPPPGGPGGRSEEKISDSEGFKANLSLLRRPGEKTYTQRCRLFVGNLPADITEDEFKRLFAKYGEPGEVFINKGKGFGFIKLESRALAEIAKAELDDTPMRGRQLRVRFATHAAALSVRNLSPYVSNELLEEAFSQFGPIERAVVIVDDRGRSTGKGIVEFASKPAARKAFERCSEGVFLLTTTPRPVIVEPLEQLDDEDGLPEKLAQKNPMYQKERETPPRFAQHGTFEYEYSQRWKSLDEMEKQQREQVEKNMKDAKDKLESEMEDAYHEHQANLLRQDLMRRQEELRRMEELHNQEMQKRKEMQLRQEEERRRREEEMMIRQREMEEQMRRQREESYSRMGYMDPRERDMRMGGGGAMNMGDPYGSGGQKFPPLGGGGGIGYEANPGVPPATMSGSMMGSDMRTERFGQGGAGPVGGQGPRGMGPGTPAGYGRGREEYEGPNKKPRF

[2] = molecular target: T1, SFPQ (human (endogenous in TREx-BCBL1-RTA)); assay: affinity purification with mass spectrom

In the case of KSHV ORF11 protein, the binding [1] is reported as “binds”.

Ku70 (from UniProt P12956 1-609) was tested, and the binding [2] was “binds”.

No constants are given. Whether binding was seen depends on the method and setting. In cells and extracts the contact can be indirect. A yes stands for co-enrichment or nearness to the bait. Other partners may have been found.
